# Test results reported in patent US20220362299A1, “ENGINEERED NATURAL KILLER CELLS AND METHODS FOR USING THE SAME IN IMMUNOTHERAPY AND AUTOPHAGY INHIBITON TECHNIQUES” (Purdue Research Foundation, priority 2019, published 2022).
# At least one compound was matched to its structure with a doubt left.
# Test system: GBM43 cells
# Assay: ELISA of CCL5 and CXCL10 in supernatant of GBM43 cells
# Format: cell-based, human
# Conditions: with CQ 50 μM, 24 h
# Source text: To evaluate changes in the protein levels of these chemokines and gain more insight into the underlying molecular mechanisms, chemokine concentrations were quantified in the conditioned media of CQ-treated GBM43 cells using ELISA in absence and presence of various pharmacological inhibitors driving signaling pathways for these chemokines. This included the PI3K inhibitor LY294002, NF-κB inhibitor BAY11-7082 and JNK inhibitor SP600125.
# More specifically, to measure secreted CCL5 and CXCL10, GBM43 cells were treated with CQ at a final concentration of 50 μM in presence or absence of various small molecule inhibitors, including LY294002, BAY11-7082 and SP600125 for 24 hours. Supernatants were collected and the levels of CCL5 and CXCL10 were quantified using Human CCL5 and CXCL10 Biolegend-ELISA MAX™ Deluxe Sets according to the manufacturer's directions. To look at the levels of multiple chemokines secretion from GBM43 cells, the cell culture supernatants were also collected and all the selected targets were determined with the chemokine array provided by Eve Technologies (Calgary, Canada).
smiles,measurement,value
O=c1cc(N2CCOCC2)oc2c(-c3ccccc3)cccc12 [LY294002],inhibition of the CQ-elevated production of CCL5 and CXCL10,significantly inhibited
Oc1c2ccccc2c2c3c(cccc13)N=N2 [SP600125],inhibition of the CQ-elevated production of CCL5 and CXCL10,not
